PubChem BioAssay AID652272, Drosophila RNAi Screening Center – 2013
The deposit covers about 21,000 reagents; shown is an unselected part of those with a known target gene and a result. Of all reagents, 503 (2.4%) were called active. 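Raw plate light values, not normalised; calls rest on replicate z-scores that were not deposited; hits include reporter decreases as well as increases.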 Reagent sequences are not shown. The record does not give: the amount of reagent, the time to read-out.

Assay: 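Genes whose knock-down decreases or increases Hedgehog reporter output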 (primary screen)
Cells: Drosophila clone 8 (Cl8) cells
Knock-down reagent: long dsRNA against Drosophila genes
Measurement: 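Plate reader light from a firefly reporter under a ptc promoter fragment that responds to Hedgehog, with Renilla light as transfection reference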
Reading the numbers: firefly Hh reporter signal: higher = more ptc reporter light; Renilla reference signal: higher = more Renilla control light
Rule for the call: 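Hit when the z-score averaged over two replicates is under -2 or over +3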
Calls: active = hit: reporter lowered or raised; inactive = not a hit

gene knocked down	amplicon	firefly Hh reporter signal, replicate 1	firefly Hh reporter signal, replicate 2	firefly Hh reporter signal, replicate 3	Renilla reference signal, replicate 1	Renilla reference signal, replicate 2	Outcome
CG9514	DRSC20190	74626	1.97e5		2609	8609	inactive
CG9514	DRSC20191	81753	2.14e5		2668	9328	inactive
RpS2	DRSC03614	31197	18576		2121	1813	active
Rop	DRSC08693	91595	52491		3643	2052	inactive
CG32107	DRSC09221	2.15e5			5096		inactive
Top3alpha	DRSC03460	83649	43642		2112	3707	inactive
CG5225	DRSC15742	1.11e5	1.04e5		2801	2557	inactive
RIOK1	DRSC09853	1.40e5	98493		6123	4359	inactive
SMC3	DRSC20227	1.03e5	2.29e5		3273	6903	inactive
CG9117	DRSC03141	88115	58400		2588	5386	inactive
CG15546	DRSC15084	1.38e5	1.88e5		4021	8823	inactive
CG13377	DRSC18622	84571	1.45e5		1717	6160	inactive
CG14866	DRSC14989	98610	1.10e5		2683	2370	inactive
CG31380	DRSC15688	4.81e5	90256		23424	2580	inactive
5-HT2B	DRSC16360	46969	72790		2164	2828	inactive
5-HT2B	DRSC16362	36963	1.09e5		1412	2818	inactive
CG13590	DRSC04226	1.20e5	91750		2743	8146	inactive
repo	DRSC16369	3.56e5	55186		18891	1413	inactive
CG5726	DRSC06946	82485	46669		4551	2156	inactive
CG5024	DRSC15698	4.63e5	72853		25187	2236	inactive
CG13026	DRSC09906	1.59e5			3285	6741	inactive
fipi	DRSC00465	79076	45174		1735	4220	inactive
lncRNA:CR32658	DRSC19402	88996	2.49e5		2181	9603	inactive
CG40486	DRSC20619	1.33e5	81734		2849	2075	inactive
CG13001	DRSC19520	1.29e5	5.83e5	2.94e5	2224	5175	inactive
d4	DRSC04881	1.68e5	1.44e5		6246	5858	inactive
CG5071	DRSC15710	7.99e5	1.70e5		39712	4938	inactive
Acp53C14b	DRSC06569	96358	39314		2704	2624	inactive
luna	DRSC05253	1.75e5	2.77e5		4618	12874	inactive
luna	DRSC06663	32955	6424		1040	467	inactive
luna	DRSC07336	1.67e5	7.70e5	84136	3346	5609	inactive
cta	DRSC03769	1.30e5	53570		4360	1906	inactive
crn	DRSC18184	61052	24172		6844	1572	active
crn	DRSC18185	72804	32759		7443	1829	active
crn	DRSC18755	58037	27078		2704	2544	active
naz	DRSC14790	5.97e5	1.03e5		40055	2603	inactive
naz	DRSC16199	4.27e5	78155		27859	2182	inactive
Fa2h	DRSC06608	78276	44084		1816	3873	inactive
Fa2h	DRSC06609	78803	60982		2035	4774	inactive
ppk16	DRSC02736	78252	38290		1804	3810	inactive
GluRIIE	DRSC13431	54826	2.00e5		11590	4938	inactive
CG14545	DRSC14889	5.73e5	1.30e5		29597	3245	inactive
CG15537	DRSC15073	1.12e5	1.30e5		1968	2585	inactive
Gyg	DRSC03850	67717	1.43e5		6306	10512	inactive
Gyg	DRSC04556	97328	76864		2405	6329	inactive
CG13476	DRSC10019	98464			2032	2616	inactive
mora	DRSC16594	4.89e5	79084		26589	2592	inactive
CG33325	DRSC12699	1.30e5			2824		inactive
CG7634	DRSC11843	74211	82376		2595	2344	inactive
CG15577	DRSC18065	95184	2.93e5		3891	10220	inactive
Fas3	DRSC01638	78951	1.66e5		1863	8760	inactive
Fas3	DRSC03326	1.27e5	51960		3084	2512	inactive
Vps52	DRSC03050	69592	50517		1232	4514	inactive
RabX2	DRSC18234	1.01e5	4.70e5	3.30e5	3593	4470	inactive
CG15025	DRSC15031	5.50e5	71392		30426	1847	inactive
CG42565	DRSC04154	75616	40717		2080	3913	inactive
Sou	DRSC04356	88880	65942		1985	5476	inactive

A run of entries of the results above, for reference:
gene knocked down	amplicon	firefly Hh reporter signal, replicate 1	firefly Hh reporter signal, replicate 2	firefly Hh reporter signal, replicate 3	Renilla reference signal, replicate 1	Renilla reference signal, replicate 2	Outcome
luna	DRSC07336	1.67e5	7.70e5	84136	3346	5609	inactive
cta	DRSC03769	1.30e5	53570		4360	1906	inactive
